The text below walks through data of paper PMC4082627.

Protein sequences, listed by entry. Tags and fused reporters are not part of them.
UniProt O75362: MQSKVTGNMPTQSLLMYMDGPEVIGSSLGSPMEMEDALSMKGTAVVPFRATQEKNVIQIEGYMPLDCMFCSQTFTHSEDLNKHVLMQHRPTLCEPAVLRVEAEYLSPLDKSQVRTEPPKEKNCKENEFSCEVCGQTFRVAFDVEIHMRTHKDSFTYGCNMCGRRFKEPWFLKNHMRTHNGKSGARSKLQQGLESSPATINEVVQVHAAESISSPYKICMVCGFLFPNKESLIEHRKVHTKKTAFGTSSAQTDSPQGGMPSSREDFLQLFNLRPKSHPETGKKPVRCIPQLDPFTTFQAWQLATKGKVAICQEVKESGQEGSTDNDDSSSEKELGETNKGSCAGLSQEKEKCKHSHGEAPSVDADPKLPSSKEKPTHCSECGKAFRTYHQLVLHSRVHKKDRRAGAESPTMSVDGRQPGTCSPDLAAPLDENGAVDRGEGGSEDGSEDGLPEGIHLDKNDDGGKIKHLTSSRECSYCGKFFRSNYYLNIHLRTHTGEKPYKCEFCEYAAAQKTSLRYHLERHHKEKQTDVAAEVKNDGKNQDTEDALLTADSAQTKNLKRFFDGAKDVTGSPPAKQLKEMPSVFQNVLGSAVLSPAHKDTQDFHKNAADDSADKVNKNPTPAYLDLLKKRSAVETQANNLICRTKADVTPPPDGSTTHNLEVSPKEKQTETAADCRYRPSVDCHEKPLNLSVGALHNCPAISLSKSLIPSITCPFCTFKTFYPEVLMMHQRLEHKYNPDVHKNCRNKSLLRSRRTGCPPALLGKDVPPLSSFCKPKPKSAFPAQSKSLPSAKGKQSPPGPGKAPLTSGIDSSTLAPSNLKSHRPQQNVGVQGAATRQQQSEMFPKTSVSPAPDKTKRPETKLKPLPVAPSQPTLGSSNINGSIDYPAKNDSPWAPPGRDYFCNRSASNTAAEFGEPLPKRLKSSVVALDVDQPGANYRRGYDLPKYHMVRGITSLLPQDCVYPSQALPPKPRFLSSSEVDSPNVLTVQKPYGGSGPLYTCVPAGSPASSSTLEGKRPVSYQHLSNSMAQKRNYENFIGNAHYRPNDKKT

In the test the target is estrogen receptor alpha (human (endogenous in MCF7)) (UniProt P03372). As to the kind of experiment: co-IP; endogenous proteins; pre-cleared MCF7 nuclear extracts, 5 ug ERα antibody or rabbit IgG control overnight, protein G agarose 2 h; washed in co-IP buffer (20 mM Tris pH 7.5, 150 mM NaCl, 1% NP40, 10% glycerol, 1 mM MgCl2); immunoblot.

Results are given in words; binding and its absence hold for the method and conditions named. Binding seen in cells or lysates may run through a third protein. Some results given as binding are weak or reduced against the parent protein; the word gives no strength.

As for “zinc finger protein #217 (from UniProt O75362 1-1048)”, the binding result was “binds”.

For CtBP2 (from UniProt P56545 1-445), the binding result is “binds”.
